We go through 62 compounds from PubChem BioAssay AID493014 (National Center for Advancing Translational Sciences (NCATS), 2011).

The nature of this experiment: qHTS Assay to Find Inhibitors of Chronic Active B-Cell Receptor Signaling. To be noted: ABC-DLBCL IkBa-CBG/CBR reporter, luminescence ratio (green luciferase fused to IkBa over red control in TMD8 lymphoma cells), 4 h. The essentials:
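Cell line TMD8 (human ABC DLBCL), stably expressing tet-inducible CBG68-IkBa fusion and CBR; IMDM/0.5% FBS; cpd up to 46 uM; dox induction, 4 h, 37C/5% CO2; dual luminescence; green/red ratio; MG132 control.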
(In general: Quantitative high-throughput screening tests each substance at several concentrations.)

Where [1] appears, read: measured here: CBR red luminescence, cell number.
The mark [2] stands for this setting: measured here: IkBa-CBG green luminescence.

By AC50 is commonly meant the concentration giving half of the maximal activity seen.

The list shows a part of the results. Shown are side measurements of this screen, not its main read-out; they come without a call. Most of these compounds were active or inconclusive in the main read-out, so they are no random draw. Potencies come from curve fits of mixed quality, noted in brackets.

For the compound `COc1ccc(CNC(=O)c2cc(-c3ccccc3OC)on2)cc1`, under setting [1], the AC50 is 22.4 µM [falling, partial curve, poor fit].
`COc1ccc(C(=O)/C=C/N(C)C)cc1OC`: the AC50 under setting [1] is 10 µM [rising, partial curve, poor fit].
As to `C/C=C/c1ccc(Oc2nnnn2-c2ccc(C(N)=O)cc2)c(OC)c1`, the AC50 under setting [1] is 6.51 µM [falling, single point] and the AC50 under setting [2] was 6.51 µM [rising, partial curve, poor fit].
Regarding `Cn1c(Cl)c(C(=O)Nc2ccc(Cl)cc2)c2ccccc21`, the AC50 under setting [1] was 0.398 µM [rising, full curve].
Same read-out and setting: the same measure for `Cc1ccc(N(CC(=O)NCc2cccs2)S(=O)(=O)c2cccs2)cc1`: 29.1 µM [rising, single point].
Same read-out and setting: the same measure for `O=C1C2C3C=CC(C4CC34)C2C(=O)N1c1cc(Cl)ccn1` (centres undefined): 14.1 µM [rising, partial curve, poor fit].
For `CN(C)c1nc(N/N=C/c2ccccc2O)nc(Nc2ccc(F)cc2)n1`, the AC50 runs as follows: under setting [1], 11.2 µM [falling, partial curve, poor fit]; under setting [2], 35.5 µM [falling, single point].
With `S=c1nc(-c2ccccc2)c(-c2ccccc2)n[nH]1`, the AC50 under setting [1] was 3.98 µM [rising, single point].
Same read-out and setting: to `Cc1ccc(CN2CCN(/N=C/C=C/c3ccccc3[N+](=O)[O-])CC2)cc1` belongs 22.4 µM [falling, single point]; to `Cc1cccc(CC(C)NC(=O)c2cc(COc3ccc(C)c(C)c3)on2)n1` (centres undefined), 25.1 µM [falling, single point].
Same read-out and setting: to `COc1ccc2cc(C(C)C(=O)OC(C)C)ccc2c1` (centres undefined) belongs 5.8 µM [rising, full curve]; to `Cc1nc(-c2ccc(C(=O)Nc3cccc(F)c3)cc2)cs1`, 8.91 µM [falling, partial curve]; to `COc1ccc2oc(=O)c(C(=O)Nc3cccc(C)c3)cc2c1`, 0.1 µM [falling, full curve, poor fit].
Still for that read-out and setting: to `Cc1csc(NC(=O)/C=C/c2ccco2)n1` belongs 9.2 µM [falling, partial curve]; to `O=C(COC(=O)c1ccc(-n2cnnn2)cc1)c1ccc(Br)cc1`, 18.4 µM [falling, partial curve, poor fit]; to `C/C(CC(=O)NC1CCCCC1)=N\NC(=O)c1ccc(Br)cc1`, 11.2 µM [falling, partial curve].
Consider `COCCn1c(=O)[nH]c2cc(C(=O)OC)ccc2c1=O`, for which, under setting [1], the AC50 was 0.316 µM [falling, full curve, poor fit].
Still for that read-out and setting: to `Fc1ccccc1NC(=S)N1CCN(Cc2ccccc2)CC1` belongs 18.4 µM [rising, partial curve, poor fit]; to `CCCCN(C(=O)c1cc2c(s1)CCCC2)c1c(N)n(CCC)c(=O)[nH]c1=O`, 29.1 µM [rising, single point]; to `COC(=O)CCC(=O)c1oc2ccc(Br)cc2c1N`, 1.03 µM [rising, full curve, poor fit].
On the same count and under the same terms, the same measure for `CCOc1ccc(/C=C/C2=CC(C)(C)NC(=S)N2)cc1`: 10 µM [falling, partial curve]; for `CC(C)(C)c1ccc(C(=O)Nc2cccc(S(=O)(=O)NC3=NCCC3)c2)cc1`: 18.4 µM [falling, partial curve]; for `Cc1ncc(CSCC(=O)Nc2cc(C(F)(F)F)ccc2Cl)c(CO)c1O`: 0.447 µM [falling, full curve].
As for `COc1ccc2cc(C(=O)Nc3ccc(O)cc3)sc(=O)c2c1OC`, the AC50 under setting [1] is 5.17 µM [falling, partial curve].
With `Cc1cc(-c2ccccc2)n(-c2ccc(C(=O)N3CCN(c4ncccn4)CC3)cc2)n1`, the AC50 is, setting by setting: under setting [1], 6.51 µM [rising, single point]; under setting [2], 4.11 µM [falling, single point].
`O=C(Nc1cccc(Cl)c1)c1ccc2c(=O)n3c(nc2c1)CCCCC3`: the AC50 under setting [1] was 0.708 µM [rising, partial curve].
Same read-out and setting: to `Nc1nc(N)nc(-c2ccccc2)n1` belongs 18.4 µM [falling, single point]; to `Cc1nonc1C(=O)N/N=C/c1cccc(O)c1`, 18.4 µM [falling, single point]; to `O=S(=O)(NCC1CCCO1)c1ccc(S(=O)(=O)N2CCc3ccccc3C2)cc1` (centres undefined), 10.3 µM [rising, partial curve, poor fit].
As for `CCC(C)N(C(=O)COC(=O)/C=C/c1ccc(O)c(OC)c1)C1CCS(=O)(=O)C1` (centres undefined), the AC50 under setting [1] is 29.1 µM [falling, partial curve, poor fit].
On the same count and under the same terms, the same measure for `O=C(CSc1nc(=O)n2ccccc2n1)NCc1ccccc1Cl`: 11.6 µM [falling, partial curve, poor fit]; for `Cc1ccnc(Sc2ncccc2[N+](=O)[O-])n1`: 20.6 µM [falling, single point].
The same measure, in the same setting: to `COc1ccccc1-n1cnnc1SCC(=O)Nc1cc(C(C)(C)C)nn1-c1ccccc1` belongs 28.2 µM [falling, single point]; to `CCOC(=O)C1CCN(c2c(C(=O)c3ccccc3)cnc3ccc(Cl)cc23)CC1`, 17.8 µM [rising, single point].
In the case of `CC1(C)Cc2ccccc2/C(=C/C(=O)c2ccccc2)N1`, the AC50 under setting [1] is 12.6 µM [rising, partial curve].
On the same count and under the same terms, the same measure for `CCS(=O)(=O)Nc1cccc(-c2cc(-c3ccccc3)c3cc(C)ccc3n2)c1`: 20.6 µM [falling, partial curve, poor fit].
As to `Cc1csc(NC(=O)CSCC(=O)O)c1-c1nc2ccccc2s1`, the AC50 is 15.8 µM [falling, partial curve, poor fit] under setting [1] and 11.2 µM [rising, partial curve, poor fit] under setting [2].
Take `NS(=O)(=O)c1ccc(NC(=O)c2ccc(F)cc2F)c(NC(=O)c2ccc(F)cc2F)c1`: under setting [2], the AC50 was 11.2 µM [falling, partial curve, poor fit].
As to `CC(C)c1ccc(/C=N/NC(=O)c2cccc(Cl)c2)cc1`, the AC50 under setting [1] is 32.6 µM [falling, partial curve, poor fit].
With `Cc1ccc(CN2C(=O)C[C@@H](NC(=O)OCC3c4ccccc4-c4ccccc43)C/C=C\C2c2ccc(C)cc2)cc1` (some centres undefined), the AC50 under setting [1] is 29.1 µM [rising, single point] and the AC50 under setting [2] was 23.1 µM [falling, partial curve, poor fit].
Consider `O=C(CSCC(=O)Nc1ccccc1)N/N=C/c1c(O)ccc2ccccc12`, for which the AC50 under setting [1] is 15.8 µM [falling, single point].
Still for that read-out and setting: the same measure for `C=CCn1c(=O)c(C(=O)Nc2ccccc2S(N)(=O)=O)c(O)c2ccccc21`: 14.1 µM [falling, single point].
As for `CCCC(=O)Nc1nc2ccc(S(=O)(=O)N3CCCCC3)cc2s1`, the AC50 under setting [1] was 20.6 µM [rising, single point] and the AC50 under setting [2] was 4.11 µM [falling, partial curve, poor fit].
With `O=C(CSc1ccc2ccccc2n1)c1ccc2c(c1)OCO2`, the AC50 under setting [1] was 0.92 µM [falling, full curve, poor fit].
On the same count and under the same terms, to `CCCNC(=O)c1ccc2c(c1)N(Cc1cccc(C)c1)C(=O)c1ccccc1S2` belongs 7.94 µM [falling, partial curve, poor fit].
Same read-out and setting: to `CC1CC(Nc2ccccc2)c2ccccc2N1C(=O)c1ccco1` (centres undefined) belongs 12.6 µM [falling, partial curve, poor fit]; to `CCC(C)(C)n1nnnc1CN(Cc1cc2cc(OC)ccc2[nH]c1=O)C1CCCC1`, 0.355 µM [rising, full curve, poor fit]; to `C=C(C)C1CC=C(CN2CCN(Cc3ccccc3)CC2)CC1` (centres undefined), 12.6 µM [rising, partial curve, poor fit].
The same measure, in the same setting: to `C1CSC2(N1)C1CC3CC2CC(C1)C31NCCS1` (centres undefined) belongs 35.5 µM [falling, single point]; to `CCC(=O)c1cc(F)c(N2CCN(S(=O)(=O)c3ccccc3)CC2)cc1C`, 2.31 µM [rising, full curve, poor fit]; to `COC(=O)c1ccc2[nH]c3cccc(/C(=C/c4ccccc4)c4ccccc4)c3c2c1`, 12.6 µM [rising, partial curve].
`Cc1cc2nnc(SCC(=O)N3C(C)CCCC3C)n2c(N)n1` (centres undefined): under setting [1], the AC50 is 5.8 µM [falling, single point].
Still for that read-out and setting: the same measure for `COc1ccc(Cl)cc1NC(=O)C(C)OC(=O)Cn1cc(C(F)(F)F)ccc1=O` (centres undefined): 4.11 µM [rising, full curve].
Still for that read-out and setting: the same measure for `C/C(=N\NC(=O)c1ccoc1C)c1cccc2ccccc12`: 10 µM [falling, partial curve]; for `Cc1cc(NC(=O)Nc2cccc3ccccc23)no1`: 12.6 µM [falling, single point].
`Cc1cccc(N(C)S(=O)(=O)c2ccc(-c3cnc(C4CC4)o3)cc2)c1`: the AC50 under setting [1] was 1.78 µM [rising, full curve] and the AC50 under setting [2] was 2 µM [falling, full curve].
Take `COc1ccc(OCC(=O)Nc2nccs2)cc1`: the AC50 under setting [1] was 6.31 µM [falling, partial curve, poor fit].
Consider `Cn1cc(C(=O)C(=O)NCCc2ccccc2)c2ccccc21`, for which, under setting [1], the half-maximal activity concentration (AC50) was 35.5 µM [falling, partial curve, poor fit].
As for `CC(=O)NCCc1ccc(S(=O)(=O)N2CCN(c3nc(-c4ccccc4)c(C)s3)CC2)cc1`, the AC50 under setting [1] was 0.794 µM [rising, full curve, poor fit].
As for `Cc1nc(SCC(=O)c2ccc(F)cc2)c([N+](=O)[O-])[nH]1`, under setting [1], the AC50 is 35.5 µM [falling, single point].
On the same count and under the same terms, the same measure for `CCOCCc1nnc(NC(=O)CCS(=O)(=O)c2ccccc2)s1`: 11.2 µM [falling, partial curve]; for `COc1c(C(=O)Nc2ccc3[nH]c(=O)[nH]c3c2)cc2ccccc2c1Br`: 35.5 µM [rising, single point].
